Measured values as given in article PMC11558673 (Biomacromolecules, 2024).

Test: general procedure: peptide synthesis; Fmoc-NH-SAL-MBHA resin (100–200 mesh); HBTU/OxymaPure (solid phase); COMU/DIPEA (solution branching)
Settings: coupling step

Substance	step yield
PEPTIDE1{E.E.E.E.E.F.P.G.V.G.[am]}|PEPTIDE2{F.P.G.V.G.[am]}|PEPTIDE3{F.P.G.V.G.[am]}|PEPTIDE4{F.P.G.V.G.[am]}|PEPTIDE5{F.P.G.V.G.[am]}|PEPTIDE6{F.P.G.V.G.[am]}$PEPTIDE1,PEPTIDE2,1:R3-1:R1|PEPTIDE1,PEPTIDE3,2:R3-1:R1|PEPTIDE1,PEPTIDE4,3:R3-1:R1|PEPTIDE1,PEPTIDE5,4:R3-1:R1|PEPTIDE1,PEPTIDE6,5:R3-1:R1$$$V2.0	58%
PEPTIDE1{[gGlu].[gGlu].[gGlu].[gGlu].[gGlu].[gGlu].F.P.G.V.G.[am]}|PEPTIDE2{F.P.G.V.G.[am]}|PEPTIDE3{F.P.G.V.G.[am]}|PEPTIDE4{F.P.G.V.G.[am]}|PEPTIDE5{F.P.G.V.G.[am]}|PEPTIDE6{F.P.G.V.G.[am]}|PEPTIDE7{F.P.G.V.G.[am]}$PEPTIDE1,PEPTIDE2,1:R3-1:R1|PEPTIDE1,PEPTIDE3,2:R3-1:R1|PEPTIDE1,PEPTIDE4,3:R3-1:R1|PEPTIDE1,PEPTIDE5,4:R3-1:R1|PEPTIDE1,PEPTIDE6,5:R3-1:R1|PEPTIDE1,PEPTIDE7,6:R3-1:R1$$$V2.0	8%
PEPTIDE1{[gGlu].[gGlu].[gGlu].[gGlu].F.P.G.V.G.[am]}|PEPTIDE2{F.P.G.V.G.[am]}|PEPTIDE3{F.P.G.V.G.[am]}|PEPTIDE4{F.P.G.V.G.[am]}|PEPTIDE5{F.P.G.V.G.[am]}$PEPTIDE1,PEPTIDE2,1:R3-1:R1|PEPTIDE1,PEPTIDE3,2:R3-1:R1|PEPTIDE1,PEPTIDE4,3:R3-1:R1|PEPTIDE1,PEPTIDE5,4:R3-1:R1$$$V2.0	15%
PEPTIDE1{[gGlu].[gGlu].[gGlu].[gGlu].[gGlu].F.P.G.V.G.[am]}|PEPTIDE2{F.P.G.V.G.[am]}|PEPTIDE3{F.P.G.V.G.[am]}|PEPTIDE4{F.P.G.V.G.[am]}|PEPTIDE5{F.P.G.V.G.[am]}|PEPTIDE6{F.P.G.V.G.[am]}$PEPTIDE1,PEPTIDE2,1:R3-1:R1|PEPTIDE1,PEPTIDE3,2:R3-1:R1|PEPTIDE1,PEPTIDE4,3:R3-1:R1|PEPTIDE1,PEPTIDE5,4:R3-1:R1|PEPTIDE1,PEPTIDE6,5:R3-1:R1$$$V2.0	13%
PEPTIDE1{E.E.E.E.E.E.F.P.G.V.G.[am]}|PEPTIDE2{F.P.G.V.G.[am]}|PEPTIDE3{F.P.G.V.G.[am]}|PEPTIDE4{F.P.G.V.G.[am]}|PEPTIDE5{F.P.G.V.G.[am]}|PEPTIDE6{F.P.G.V.G.[am]}|PEPTIDE7{F.P.G.V.G.[am]}$PEPTIDE1,PEPTIDE2,1:R3-1:R1|PEPTIDE1,PEPTIDE3,2:R3-1:R1|PEPTIDE1,PEPTIDE4,3:R3-1:R1|PEPTIDE1,PEPTIDE5,4:R3-1:R1|PEPTIDE1,PEPTIDE6,5:R3-1:R1|PEPTIDE1,PEPTIDE7,6:R3-1:R1$$$V2.0	37%
PEPTIDE1{E.E.E.E.F.P.G.V.G.[am]}|PEPTIDE2{F.P.G.V.G.[am]}|PEPTIDE3{F.P.G.V.G.[am]}|PEPTIDE4{F.P.G.V.G.[am]}|PEPTIDE5{F.P.G.V.G.[am]}$PEPTIDE1,PEPTIDE2,1:R3-1:R1|PEPTIDE1,PEPTIDE3,2:R3-1:R1|PEPTIDE1,PEPTIDE4,3:R3-1:R1|PEPTIDE1,PEPTIDE5,4:R3-1:R1$$$V2.0	57%

HELM strings list residues between dots; [ac] is acetyl, [am] amide, other brackets name non-standard units.
